Reference: PubChem BioAssay AID652272 (Drosophila RNAi Screening Center, 2013)
The screen tested about 21,000 reagents; this is an unselected part of those with a known target gene and a result. Over the whole deposit, 503 (2.4%) are marked active. 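Raw plate light values, not normalised; calls rest on replicate z-scores that were not deposited; hits include reporter decreases as well as increases.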 Entries without a mark were called inactive. Reagents against one gene are numbered here. Names joined by + are all predicted targets of the reagent. The record does not give: the amount of reagent, the time to read-out.

- Test: 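Finding fly genes that regulate Hedgehog signal transduction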 (primary screen)
- System: Drosophila clone 8 (Cl8) cells
- Knock-down reagent: long dsRNA against Drosophila genes
- Detection: 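Firefly light from a Hedgehog-responsive ptc promoter reporter and Renilla reference light, both read on a plate reader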
- Scale: firefly Hh reporter signal: higher = more ptc reporter light; Renilla reference signal: higher = more Renilla control light
- Hit rule: 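Hit when the z-score averaged over two replicates is under -2 or over +3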
- Calls: active = hit: reporter lowered or raised; inactive = not a hit

| gene knocked down | reagent no. | firefly Hh reporter signal, replicate 1 | firefly Hh reporter signal, replicate 2 | Renilla reference signal, replicate 1 | Renilla reference signal, replicate 2 |
| --- | --- | --- | --- | --- | --- |
| CG9861 | 1 | 62022 | 56044 | 2985 | 2395 |
| CG34135 + Nasp + CG11768 | 1 | 57011 | 71856 | 2304 | 4068 |
| CG34135 + Nasp + CG11768 | 2 | 50440 | 59456 | 2329 | 7289 |
| CG42531 | 1 | 1.40e5 | 2.79e5 | 4067 | 12458 |
| wdp | 1 | 44274 | 66114 | 2064 | 2967 |
| msk | 1 | 1.16e5 | 73464 | 5648 | 3360 |
| CG13705 | 1 | 95018 | 86858 | 7442 | 6224 |
| crc | 1 | 97580 | 77147 | 2523 | 6331 |
| Snp | 1 | 1.01e5 | 76784 | 2489 | 6796 |
| Tmf | 1 | 93699 | 3.65e5 | 3733 | 11628 |
| CG6144 | 1 | 4.44e5 | 1.25e5 | 5111 | 5111 |
| DIP-kappa | 1 | 5.28e5 | 1.75e5 | 25079 | 6811 |
| DIP-kappa | 2 | 5.65e5 | 2.30e5 | 26972 | 9218 |
| fuss | 1 | 1.31e5 | 3.34e5 | 5128 | 13142 |
| vis + achi | 1 | 94105 | 54677 | 4019 | 2324 |
| CG10984 | 1 | 89344 | 73067 | 4249 | 3680 |
| hydra | 1 | 84976 | 1.92e5 | 2630 | 7601 |
| ND-B14.7 | 1 | 1.30e5 | 50216 | 2616 | 1994 |
| Fmo-1 | 1 | 1.59e5 | 95824 | 6032 | 4141 |
| raptor | 1 | 44171 | 1.31e5 | 1570 | 4650 |
| Ccp84Ab | 1 | 81075 | 1.07e5 | 3840 | 3712 |
| bsf | 1 | 40560 | 96843 | 1909 | 3466 |
| lolal | 1 | 1.37e5 | 1.02e5 | 6352 | 4544 |

Quoted from the entries so far (2 entries):
| gene knocked down | reagent no. | firefly Hh reporter signal, replicate 1 | firefly Hh reporter signal, replicate 2 | Renilla reference signal, replicate 1 | Renilla reference signal, replicate 2 |
| --- | --- | --- | --- | --- | --- |
| CG34135 + Nasp + CG11768 | 1 | 57011 | 71856 | 2304 | 4068 |
| CG34135 + Nasp + CG11768 | 2 | 50440 | 59456 | 2329 | 7289 |
